Measured values: patent US20100323346A1
Results are given in words; binding and its absence hold for the method and conditions named. In cells and extracts the contact can be indirect. Some entries that bind do so weakly or less than the wild type. Tags and fused reporters may be left off the sequences shown.

Chains of the proteins cited; added tags and fusions are not shown. Lines headed by an entry give the natural chain unless they say otherwise; changes in a name come on top.
UniProt P48357: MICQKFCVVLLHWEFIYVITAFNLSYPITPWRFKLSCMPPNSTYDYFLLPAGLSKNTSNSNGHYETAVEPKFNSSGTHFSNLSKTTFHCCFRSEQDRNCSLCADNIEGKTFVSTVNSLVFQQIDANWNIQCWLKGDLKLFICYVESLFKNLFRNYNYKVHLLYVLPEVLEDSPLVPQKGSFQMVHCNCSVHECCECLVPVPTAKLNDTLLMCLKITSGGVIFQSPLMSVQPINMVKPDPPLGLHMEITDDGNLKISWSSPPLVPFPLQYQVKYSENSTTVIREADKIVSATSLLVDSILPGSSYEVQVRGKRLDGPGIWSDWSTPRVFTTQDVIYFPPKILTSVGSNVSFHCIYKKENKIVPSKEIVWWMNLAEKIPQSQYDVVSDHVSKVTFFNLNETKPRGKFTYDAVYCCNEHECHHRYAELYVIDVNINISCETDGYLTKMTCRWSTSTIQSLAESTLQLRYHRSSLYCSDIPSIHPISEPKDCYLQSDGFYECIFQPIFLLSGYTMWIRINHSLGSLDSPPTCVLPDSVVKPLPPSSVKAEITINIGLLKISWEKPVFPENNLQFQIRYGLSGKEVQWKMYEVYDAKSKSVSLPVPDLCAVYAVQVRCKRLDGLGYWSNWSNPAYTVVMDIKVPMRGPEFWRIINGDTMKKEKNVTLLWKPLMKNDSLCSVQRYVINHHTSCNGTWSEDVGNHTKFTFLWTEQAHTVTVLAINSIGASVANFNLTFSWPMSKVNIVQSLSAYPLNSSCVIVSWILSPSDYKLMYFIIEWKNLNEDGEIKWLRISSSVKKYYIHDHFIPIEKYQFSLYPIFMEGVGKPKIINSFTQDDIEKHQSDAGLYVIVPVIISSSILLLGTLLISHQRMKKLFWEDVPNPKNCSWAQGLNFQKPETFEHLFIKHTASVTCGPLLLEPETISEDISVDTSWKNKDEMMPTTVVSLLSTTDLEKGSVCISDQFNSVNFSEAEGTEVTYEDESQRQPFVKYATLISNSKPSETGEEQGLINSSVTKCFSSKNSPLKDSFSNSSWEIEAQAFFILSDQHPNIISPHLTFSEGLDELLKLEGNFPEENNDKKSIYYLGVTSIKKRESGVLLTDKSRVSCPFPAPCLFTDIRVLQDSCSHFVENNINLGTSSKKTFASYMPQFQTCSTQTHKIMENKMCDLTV

Target: LRID-Myc (intracellular domain of the leptin receptor fused to a tag) (human) (UniProt P48357)
Assay: co-immunoprecipitation from transfected COS7 cells (IP anti-FLAG agarose, Western blot anti-Myc)

- binding: binds
B1: galectin-2-FLAG (ligand, not shown: small tags and cut ends)
chain: MTGELEVKNMDMKPGSTLKITGSIADGTDGFVINLGQGTDKLNLHFNPRFSESTIVCNSLDGSNWGQEQREDHLCFSPGSEVKFTVTFESDKFKVKLPDGHELTFPNRLGHSHLSYLSVRGGFNMSSFKLKE
